According to PubChem BioAssay AID624297 (National Center for Advancing Translational Sciences (NCATS), 2012):
Among all 340,000 compounds or so, about 6,200 (1.8%) were called active. Inconclusive means that the source gave no clear call. Such entries were picked first, then a sample of the others. Calls come from the whole dose curve; as a rule, active = well fitted activation curve with a large enough effect; inconclusive = small, poorly fitted or top-dose-only effect; inactive = no such curve, though single readings can be large or run the other way. Where the call is inconclusive, the potency comes from a doubtful curve fit.

Assay: A quantitative high throughput screen for small molecules that induce DNA re-replication in SW480 colon adenocarcinoma cells. For re-replication activation: % of control where 0% means no effect. Note: nearly all actives have a fitted effect of over 55% in size.
Settings: Hoechst DNA content imaging, 48 h; re-replication activation: at 46.1 µM (top of the series) unless noted
Excerpt: H Molecular Libraries Probe Production Network [MLPCN] NIH Chemical Genomics Center [NCGC] MLPCN Grant: Fast Track K99 CA136555 Assay Provider: Melvin DePamphilis, NICHD, NIH Assay Overview Eukaryotic cells normally restrict genome duplication to once per cell division. When this process is aberrant, DNA re-replication occurs when cells reinitiate DNA replication before the first round of replication is complete. DNA re-replication induces the DNA damage response, arrests cell proliferation, and triggers apoptosis. The cell cycle components cyclin A, Cdt-1, Cdc6 and geminin are critical regulators of this process and their misregulation results in DNA re-replication in normal and cancer cells. To identify compounds that induce re-replication in normal cells, an image-based assay was used to measure DNA content of nuclei, as detected by the fluorescent DNA binding dye, Hoechst. Cell nuclei were imaged by a fluorescence scanning plate imager and compounds that induce DNA re-replication were identified by the increase of nuclei with elevated fluorescence intensity
For screening, 250 cells in 5 uL/well were dispensed into black clear 1536-well plates (Aurora) using a solenoid-based dispenser. Following transfer of 23 nL compound or DMSO vehicle by a pin tool, the plates were incubated 48 hr at 37 C and 5% CO2. After addition of 1 uL/well Hoescht stain, the plates were incubated 40 min at 37 C, 5% CO2 and total intensity of fluorescent objects (nuclei) were enumerated by an Acumen Explorer Ex3 (TTP LabTech) fluorescence scanning plate imager (405 nm excitation, 500-530 nm emission). Keywords: NIH Roadmap, MLPCN, MLI, MLSMR, qHTS, NCGC, DNA replication, cancer
Potency is the fitted concentration of half-maximal effect.

| Structure (SMILES) | Potency | re-replication activation |
| --- | --- | --- |
| CCOC(=O)CNC(=O)N1CCCC(CNS(=O)(=O)c2cccs2)C1 (stereo unspecified) | inconclusive: 3.26 µM [activator, single point] |  |
| Cc1ccc(N2C(=O)c3cccc4c(N)ccc(c34)C2=O)c2cccnc12 | inconclusive: 0.103 µM [activator, full curve, poor fit] |  |
| COc1ccc2sc(-c3ccc(N(C)C)cc3)c(C#Cc3cncn3C)c2c1 | active: 1.3 µM |  |
| COc1cc(O)cc(/C=C/c2ccccc2)c1 | inconclusive: 29.1 µM [activator, single point] |  |
| COc1ccc(-c2[nH]ncc2CN2CCCO2)cc1F | inconclusive: 1.16 µM [activator, single point] |  |
| Fc1ccccc1CSc1ncnc2c1oc1ccccc12 | inconclusive: 32.6 µM [activator, partial curve, poor fit] |  |
| CC(NC(=O)c1ccc(NC(=O)CC2SC(N3CCCC3)=NC2=O)cc1)c1ccccc1 (stereo unspecified) |  | inactive: -9.21% |
| Cc1cc(C(=O)CSc2nn3c(=O)c(C(C)(C)C)nnc3s2)c(C)n1C1CC1 | inconclusive: 18.4 µM [activator, partial curve, poor fit] |  |
| Cc1ccc(S(=O)(=O)Cc2ccc(C(=O)N3CCCCCC3)o2)cc1 | inconclusive: 18.4 µM [activator, partial curve, poor fit] |  |
| CC1(C)C(=O)C=CC(=O)C(C)(C)C(=O)C=CC(=O)C(C)(C)C2=CC=C(O2)C(C)(C)C(=O)C=CC1=O | inconclusive: 18.4 µM [activator, partial curve, poor fit] |  |
| O=S1(=O)CCN(Cc2cccc(Cl)c2)CC1 | inconclusive: 6.51 µM [activator, single point] |  |
| CCc1nn(-c2cc(Oc3cccc4ccccc34)nc(-c3ccccc3)n2)c(N)c1C#N | inconclusive: 7.31 µM [activator, partial curve, poor fit] |  |
| O=C(NNc1cccc(Cl)n1)Nc1cccc(C(F)(F)F)c1 | inconclusive: 1.64 µM [activator, partial curve, poor fit] |  |
| CC(C)COC(=O)N1CC(O)CC1C(=O)Nc1ccc2c(c1)OCO2 (stereo unspecified) |  | inactive: -3.57% |
| c1ccc(-c2ccccc2-c2nc(-c3cccnc3)no2)cc1 |  | inactive: 25.5% |
| CCN(CC)S(=O)(=O)c1ccc2[nH]cc(C(=O)NCCC3=CCCCC3)c(=O)c2c1 |  | inactive: 2.36% |
| Fc1ccccc1NC(=S)Nc1cccc2cnccc12 |  | inactive: -3.69% |
| Cc1ccccc1-c1nc(CS(=O)(=O)CC(=O)NCCCN2CC(C)CC(C)C2)c(C)o1 (stereo unspecified) | inconclusive: 29.1 µM [activator, single point] |  |
| N#Cc1cc(C(=O)c2cc(Br)ccc2O)cn(C2CCCCC2)c1=O | inconclusive: 29.1 µM [activator, single point] |  |
| O=C(NCCCN1CCN(c2ccccc2F)CC1)C1CCC(=O)N1C1CCCCC1 (stereo unspecified) | inconclusive: 25.9 µM [activator, partial curve, poor fit] |  |
| Cn1cnc([N+](=O)[O-])c1S(=O)(=O)c1ccc(Cl)cc1 | inconclusive: 2.91 µM [activator, full curve, poor fit] |  |

| Structure (SMILES) | Potency | re-replication activation |
| --- | --- | --- |
| Cc1cc(N2CCCC2)ccc1/C=N/n1cnnc1 | inconclusive: 18.4 µM [activator, single point] |  |
| O=C(CN1C(=O)CSc2ccc(S(=O)(=O)N3CCOCC3)cc21)NCc1ccc(Cl)cc1 |  | inactive: -6.66% |
| O=C(Oc1ccccc1)c1ccc(NC(=O)c2ccco2)cc1 | inconclusive: 20.6 µM [activator, single point] |  |
| CCOC(=O)COc1ccc(Br)cc1/C=C/c1[nH]c(=O)[nH]c(=O)c1[N+](=O)[O-] | inconclusive: 29.1 µM [activator, single point] |  |
| O=C(Cn1nnc(-c2ccccc2)n1)N/N=C/c1cccc([N+](=O)[O-])c1O | inconclusive: 29.1 µM [activator, single point] |  |
| COc1cc(C(=O)NCC(c2ccc(F)cc2)N2CCOCC2)ccc1OCc1ccccc1Cl (stereo unspecified) |  | inactive: 5.58% |
| CCOc1ccc(C(C)NC(=S)NC2CCCCC2)cc1 (stereo unspecified) | inconclusive: 23.1 µM [activator, partial curve, poor fit] |  |
| COc1ccccc1CCC(=O)N(CCC1=CCCCC1)c1c(N)n(Cc2ccccc2)c(=O)[nH]c1=O | inconclusive: 16.4 µM [activator, partial curve] |  |
| Clc1ccc(-n2cccc2CN2CCc3c([nH]c4ccccc34)C2c2ccccn2)nc1 (stereo unspecified) | inconclusive: 16.4 µM [activator, single point] |  |
| COc1ccc(N(C(=O)CNC(=O)c2ccco2)C(C(=O)NCC2CCCO2)c2ccccc2)c(OC)c1 (stereo unspecified) | inconclusive: 0.631 µM [activator, full curve, poor fit] |  |
| CC(=O)NC1=NN(C(C)=O)C(C)(c2ccc(Br)cc2)S1 (stereo unspecified) | inconclusive: 29.1 µM [activator, single point] |  |
| CC1CCCCC1NC(=O)/C(C#N)=C/C=C/c1ccccc1[N+](=O)[O-] (stereo unspecified) | active: 6.51 µM |  |
| O=C(NCCOc1ccccc1)c1ccc2n[nH]nc2c1 | active: 4.61 µM |  |
| COC(=O)CN1C(=O)C(O)(CC(=O)c2ccc(C)o2)c2ccccc21 (stereo unspecified) | inconclusive: 18.4 µM [activator, single point] |  |
| CCn1c(=O)c2sccc2n2c(CCCC(=O)N3CCN(c4ccccn4)CC3)nnc12 | inconclusive: 7.31 µM [activator, partial curve, poor fit] |  |
| O=C1N=C(N2CCOCC2)S/C1=C/c1ccc(-c2ccc(F)cc2)o1 | inconclusive: 16.4 µM [activator, single point] |  |
| CCOc1ccc2nc(NC(=O)c3cccc(-c4cc5ccccc5oc4=O)c3)sc2c1 | active: 16.4 µM |  |
| O=c1[nH]c(CN2CCN(c3ccc(O)cc3)CC2)nc2scc(-c3ccc(Cl)cc3)c12 | active: 3.66 µM |  |
| CCOc1ccc(Nc2nc(-c3cccnc3)cs2)cc1 | inconclusive: 36.6 µM [activator, partial curve, poor fit] |  |
| Cc1ccc(-n2ncc3c2CC(C)(C)CC3NC(=O)c2cc[n+]([O-])cc2)cc1 (stereo unspecified) | inconclusive: 29.1 µM [activator, single point] |  |

2 consecutive records already listed, for reference:

| Structure (SMILES) | Potency | re-replication activation |
| --- | --- | --- |
| CCn1c(=O)c2sccc2n2c(CCCC(=O)N3CCN(c4ccccn4)CC3)nnc12 | inconclusive: 7.31 µM [activator, partial curve, poor fit] |  |
| O=C1N=C(N2CCOCC2)S/C1=C/c1ccc(-c2ccc(F)cc2)o1 | inconclusive: 16.4 µM [activator, single point] |  |
